The values are deposited in ChEMBL (CHEMBL3988442, “University of Dundee, Small-Polar-MMV Screening Library” (2021)).

Sequences of proteins named here, by UniProt entry; tags and fusion partners are left off. Residues count along the entry.
UniProt P9WPC5, whole entry: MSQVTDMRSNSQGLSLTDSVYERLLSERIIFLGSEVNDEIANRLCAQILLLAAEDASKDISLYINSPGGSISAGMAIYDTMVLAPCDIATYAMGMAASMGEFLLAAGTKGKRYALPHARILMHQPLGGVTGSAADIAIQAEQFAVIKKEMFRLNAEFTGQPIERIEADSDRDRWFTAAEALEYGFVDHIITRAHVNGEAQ
UniProt P9WPC3, whole entry partner: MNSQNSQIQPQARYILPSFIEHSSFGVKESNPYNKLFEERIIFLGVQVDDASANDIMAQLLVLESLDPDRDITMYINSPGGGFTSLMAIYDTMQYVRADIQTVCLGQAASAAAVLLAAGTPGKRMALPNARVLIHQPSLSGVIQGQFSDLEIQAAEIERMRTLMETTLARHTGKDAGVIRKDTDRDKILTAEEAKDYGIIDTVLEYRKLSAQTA
UniProt I6X8D2, whole entry: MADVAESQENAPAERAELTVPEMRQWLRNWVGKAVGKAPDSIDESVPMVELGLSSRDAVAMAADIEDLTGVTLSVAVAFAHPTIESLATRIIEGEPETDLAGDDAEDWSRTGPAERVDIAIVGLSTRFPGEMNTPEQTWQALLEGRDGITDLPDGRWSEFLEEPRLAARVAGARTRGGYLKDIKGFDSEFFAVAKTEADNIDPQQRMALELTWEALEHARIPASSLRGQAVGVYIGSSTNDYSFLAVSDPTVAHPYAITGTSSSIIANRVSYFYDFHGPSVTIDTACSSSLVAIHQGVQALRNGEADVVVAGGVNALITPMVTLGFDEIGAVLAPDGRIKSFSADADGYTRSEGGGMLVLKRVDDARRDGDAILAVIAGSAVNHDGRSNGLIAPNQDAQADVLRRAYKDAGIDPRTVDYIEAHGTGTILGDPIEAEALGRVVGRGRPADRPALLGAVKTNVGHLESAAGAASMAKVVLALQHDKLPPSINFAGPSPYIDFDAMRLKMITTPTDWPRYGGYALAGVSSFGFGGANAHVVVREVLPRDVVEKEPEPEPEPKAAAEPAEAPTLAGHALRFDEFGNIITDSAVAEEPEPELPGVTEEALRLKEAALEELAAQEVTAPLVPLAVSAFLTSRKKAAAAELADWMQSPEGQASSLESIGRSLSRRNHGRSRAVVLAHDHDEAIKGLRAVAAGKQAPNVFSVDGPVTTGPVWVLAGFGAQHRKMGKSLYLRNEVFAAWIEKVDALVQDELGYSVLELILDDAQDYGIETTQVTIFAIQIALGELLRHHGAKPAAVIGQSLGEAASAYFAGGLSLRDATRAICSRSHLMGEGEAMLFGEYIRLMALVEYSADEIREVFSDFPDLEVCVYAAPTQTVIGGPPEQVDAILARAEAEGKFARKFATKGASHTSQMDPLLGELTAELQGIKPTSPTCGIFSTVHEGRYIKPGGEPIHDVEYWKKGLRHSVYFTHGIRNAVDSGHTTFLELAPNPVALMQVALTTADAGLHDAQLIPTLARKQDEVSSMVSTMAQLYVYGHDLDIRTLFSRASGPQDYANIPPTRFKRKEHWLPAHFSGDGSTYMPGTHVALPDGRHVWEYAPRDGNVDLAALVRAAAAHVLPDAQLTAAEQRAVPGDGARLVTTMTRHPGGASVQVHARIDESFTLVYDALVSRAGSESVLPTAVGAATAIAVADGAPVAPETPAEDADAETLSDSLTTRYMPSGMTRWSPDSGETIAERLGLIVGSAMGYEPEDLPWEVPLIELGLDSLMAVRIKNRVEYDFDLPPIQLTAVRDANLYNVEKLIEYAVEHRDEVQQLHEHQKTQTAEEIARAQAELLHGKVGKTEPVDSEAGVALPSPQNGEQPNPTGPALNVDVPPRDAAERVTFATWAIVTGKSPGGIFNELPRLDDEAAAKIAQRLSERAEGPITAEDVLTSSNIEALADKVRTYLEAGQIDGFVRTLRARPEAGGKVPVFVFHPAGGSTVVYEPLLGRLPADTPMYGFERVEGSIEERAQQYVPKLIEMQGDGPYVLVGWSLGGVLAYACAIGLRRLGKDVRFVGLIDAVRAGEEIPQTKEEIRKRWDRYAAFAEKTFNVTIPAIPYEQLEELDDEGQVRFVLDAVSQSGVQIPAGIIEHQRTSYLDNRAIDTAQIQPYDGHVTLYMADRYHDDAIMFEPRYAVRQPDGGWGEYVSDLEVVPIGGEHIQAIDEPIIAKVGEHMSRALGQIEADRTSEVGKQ
UniProt P9WNZ1, whole entry: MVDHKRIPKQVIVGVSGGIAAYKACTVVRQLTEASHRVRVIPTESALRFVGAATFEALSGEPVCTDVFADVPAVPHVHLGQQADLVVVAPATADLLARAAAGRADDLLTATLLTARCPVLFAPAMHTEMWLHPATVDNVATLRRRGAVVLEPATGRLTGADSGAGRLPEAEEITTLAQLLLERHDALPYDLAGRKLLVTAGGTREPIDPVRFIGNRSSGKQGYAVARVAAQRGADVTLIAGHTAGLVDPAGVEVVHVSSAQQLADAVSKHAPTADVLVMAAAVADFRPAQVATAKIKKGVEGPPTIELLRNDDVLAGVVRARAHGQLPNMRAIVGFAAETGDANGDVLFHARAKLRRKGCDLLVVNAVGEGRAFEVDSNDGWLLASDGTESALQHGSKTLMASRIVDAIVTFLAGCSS
UniProt A4I591, 1-473: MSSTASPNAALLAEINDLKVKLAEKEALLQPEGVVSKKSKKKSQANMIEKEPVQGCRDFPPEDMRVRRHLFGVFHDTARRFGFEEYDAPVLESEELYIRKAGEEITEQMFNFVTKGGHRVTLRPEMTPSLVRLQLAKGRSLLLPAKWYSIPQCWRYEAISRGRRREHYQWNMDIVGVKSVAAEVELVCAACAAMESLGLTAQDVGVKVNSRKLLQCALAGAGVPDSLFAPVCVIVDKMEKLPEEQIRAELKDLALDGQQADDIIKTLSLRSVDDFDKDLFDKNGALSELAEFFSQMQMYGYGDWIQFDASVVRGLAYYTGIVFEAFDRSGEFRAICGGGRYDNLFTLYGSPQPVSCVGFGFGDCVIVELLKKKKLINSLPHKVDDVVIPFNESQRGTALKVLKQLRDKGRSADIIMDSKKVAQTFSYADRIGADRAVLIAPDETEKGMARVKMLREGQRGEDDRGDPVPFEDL
UniProt Q4DA54, 1-478: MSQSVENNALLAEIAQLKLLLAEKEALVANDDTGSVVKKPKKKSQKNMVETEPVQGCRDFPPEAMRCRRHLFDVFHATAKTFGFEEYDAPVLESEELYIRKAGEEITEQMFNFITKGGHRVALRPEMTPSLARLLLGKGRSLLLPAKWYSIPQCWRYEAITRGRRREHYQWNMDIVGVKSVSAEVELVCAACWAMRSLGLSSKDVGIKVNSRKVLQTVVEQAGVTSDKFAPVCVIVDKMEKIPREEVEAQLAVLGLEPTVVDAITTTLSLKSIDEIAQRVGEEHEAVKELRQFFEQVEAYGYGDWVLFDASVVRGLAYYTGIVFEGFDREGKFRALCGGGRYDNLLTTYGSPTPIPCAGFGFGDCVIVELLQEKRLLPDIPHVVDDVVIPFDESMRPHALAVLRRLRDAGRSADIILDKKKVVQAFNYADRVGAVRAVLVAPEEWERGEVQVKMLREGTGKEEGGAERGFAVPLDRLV

A: 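ClpP1P2, Mycobacterium tuberculosis (UniProt P9WPC5 and UniProt P9WPC3). Protease assay of ClpP1P2, read by the AMC dye that it sets free. Compounds at 50 µM. Higher reads as stronger inhibition, judged from the few compounds that gave an IC50. Most other retested compounds had strongly negative values. Size under these conditions: about 69,000 compounds, about 10 of them at 50% or above in at least one test.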
B: 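Polyketide synthase Pks13, Mycobacterium tuberculosis (UniProt I6X8D2). Enzyme assay of the thioesterase domain of polyketide synthase 13; the read-out is not stated. Compounds at 30 µM. Higher reads as stronger inhibition (inferred from which compounds were picked for retests). Size under these conditions: about 67,000 compounds, about 300 of them at 50% or above in at least one test.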
C: 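Coenzyme A biosynthesis protein CoaBC, Mycobacterium tuberculosis (UniProt P9WNZ1). Enzyme assay of CoaBC with a phosphate dye (Biomol Green) read at 650 nm. Compounds at 30 µM. Direction is inferred from only a few compounds that gave an IC50; most scored high, so higher reads as stronger inhibition. Most strong results did not repeat in a second test. About 67,000 compounds were tested under these conditions; 0.06% (about 40) showed 50% or more at least once.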
D: 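Histidine-tRNA ligase, Leishmania infantum (UniProt A4I591). Enzyme assay of histidyl-tRNA synthetase; the read-out is not stated. Compounds at 30 µM. Direction is inferred from retests: higher values go with stronger inhibition. The assay is labelled LdHisRS but filed under L. infantum. Size under these conditions: about 69,000 compounds, about 410 of them at 50% or above in at least one test.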
E: 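Histidine-tRNA ligase, Trypanosoma cruzi CL Brener (UniProt Q4DA54). Enzyme assay of histidyl-tRNA synthetase; the read-out is not stated. Tested at 30 µM. Direction is inferred from retests: higher values go with stronger inhibition. Of about 69,000 compounds tested this way, about 31 (0.045%) reached 50% or more in at least one test.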

Values are the deposited “Percent Effect”, in %.
The record does not define 0% and 100%; most values in the screen are far below 50% and negative numbers occur (in some assays of this library far below -100).
This is an unselected part of the compounds tested.

| SMILES | A | B | C | D | E |
|---|---|---|---|---|---|
| `CNC(=O)[C@@]12CCC3(CCN(C(=O)COC)CC3)[C@@H]1CN(S(C)(=O)=O)C2` | -28.86 | -14.56 | -10.62 | 15.28 | 3.738 |
| `COC1CCN(C(=O)CCn2cccn2)CC1` | -30.51 | -11.39 | 8.344 | 12.84 | 4.373 |
| `Cc1ncc(CNC(=O)NCc2c(F)cccc2OC(F)F)s1` | -15.8 | -5.35 | 1.132 | 14.16 | 0 |
| `CC1(C(=O)N2CCN(c3ncccn3)CC2)CNCCO1` (stereo not shown) | 21.83 | -19.93 | 8.612 | 8.633 | 5.747 |
| `O=C(Nc1ccc(F)cc1F)N(CCC(F)(F)F)C[C@H](O)CO` | 0.05302 | -15.39 | 4.839 | 1.754 | 10.92 |
| `O=C(c1cnccn1)N1CCC2(CCCN(Cc3ccoc3)C2)C1` (stereo not shown) | -13.7 | 19.36 | -4.139 | 0 | 6.557 |
| `CCc1c(C(=O)N2CCN(C)[C@@H]3CS(=O)(=O)C[C@@H]32)[nH]c2ccccc12` | -6.119 | -13.89 | 9.046 | 10.96 | 6.557 |
| `Cc1ccc(C(=O)N(C)Cc2ccc(Br)s2)c(=O)[nH]1` | 2.907 | -3.839 | -2.046 | 17.98 | 7.538 |
| `Cc1cc(C)nc(N2CCC(C(=O)Nc3n[nH]c(C(C)C)n3)CC2)n1` | -1.163 | -20.93 | -11.2 | 12.36 | 8.808 |
| `NC(=O)C(NC(=O)CCc1ccc(Cl)s1)c1ccccc1` (stereo not shown) | -2.005 | -28.21 | 1.276 | 21.67 | 3.922 |
| `COc1cccc2c(=O)n(C3CCCNC3)cnc12` (stereo not shown) | -9.39 | -11.55 | 3.722 | 12.77 | 10.98 |
| `C=C(C)CN1CCC(NC(=O)NCCc2ccc(N(C)C)cc2)CC1` | -6.152 | -13.37 | 1.923 | 12.33 | -12.81 |
| `Cn1cccc1C(=O)NCc1cnc2n1CCN(C(=O)c1ccoc1)C2` | -10.44 | -35.02 | 7.492 | 25.71 | 3.922 |
| `COc1cc(C)c(S(=O)(=O)NCc2cccnc2N(C)C)c(C)c1` | 10.05 | -7.198 | 6.061 | 25 | -0.3802 |
| `CN(C)S(=O)(=O)NCC1(c2ccccc2Br)CC1` | -3.019 | -3.768 | 0.2451 | 17.78 | 7.143 |
| `COc1cccc(-c2ncc(CN3CC[C@H](CO)[C@@H](O)C3)s2)c1` | -1.982 | -20.95 | 2.19 | 15.56 | 17.58 |
| `O=C(c1cscn1)N(CCCO)S(=O)(=O)c1cccs1` | -7.411 | -32.13 | -5.4 | 17.14 | -5.102 |
| `CCC(CC)N1CCC(c2[nH]ncc2S(C)(=O)=O)C1` (stereo not shown) | -12.74 | -9.289 | 4.751 | 14.08 | 6.923 |
| `Cc1ccc(-c2n[nH]cc2CNCC2CCS(=O)(=O)C2)o1` (stereo not shown) | 7.583 | -24.57 | 7.495 | 20.69 | -36.13 |
| `CCc1nc(CCNC(=O)NC2CC2)sc1C` | 0.9753 | -5.256 | -0.207 | 17.31 | 1.604 |
| `c1ccc(Cn2ccnc2CNCC2CCCN2c2cccnn2)cc1` (stereo not shown) | -17.27 | -3.73 | 3.636 | 5.357 | 0.5764 |
| `COc1cccc(-n2nnc(C(=O)N3CCN(C)CC3C)c2C)c1` (stereo not shown) | 33.66 | -24.82 | 4.404 | 4.255 | -3.817 |
| `COCCNC(=O)c1ccc2ccc(N3CCN(CC4CC4)CC3)n2c1` | -3.057 | -22.4 | 13.51 | 40.38 | 38.83 |
| `Nc1ncccc1CN1CCOCC1CC(=O)NCc1ccccn1` (stereo not shown) | 2.012 | -14.87 | -2.067 | -4.082 | -2.051 |
| `COC(CNC(=O)c1cn(C)nn1)c1ccc(C)s1` (stereo not shown) | -8.448 | -8.672 | 0.6274 | 1.695 | 5.366 |
| `Cn1cnnc1C1CCCN(C(=O)NCc2ccccc2)C1` (stereo not shown) | -10.98 | -6.722 | -3.158 | 16.98 | 1.667 |
| `CC(C)c1ccc(C2(C(=O)NCCS(N)(=O)=O)CCC2)cc1` | -6.623 | -2.771 | 1.827 | -3.226 | 10.12 |
| `O=C(CC1=CSC2=NCCN12)N1CCCC(CCc2cccc(F)c2)C1` (stereo not shown) | 0.7829 | -59.65 | -3.151 | 28.33 | 7.826 |
| `O=C(NCc1ccccc1)N1CCc2ncnc(NC3CC3)c2CC1` | -13.05 | -3.735 | 1.975 | -2.727 | 6.349 |
| `O=c1ccc(-n2ccnc2)nn1CCNS(=O)(=O)c1ccc(Cl)s1` | -6.2 | -4.854 | -2.748 | 12.17 | 5.155 |
| `Cc1cccc(CNC2CC3(CCN(CCO)CC3)c3ccccc32)n1` (stereo not shown) | -2.362 | -7.408 | 1.485 | 20.72 | 7.735 |
| `O=S(=O)(CC1CC1)c1ncc(CN2CCOCC2)n1CC1CCCO1` (stereo not shown) | -6.48 | -4.332 | -6.509 | -3.03 | 4.233 |
| `CC(C)c1nn(C)c(N(C)C)c1CNCC(O)c1ccccc1` (stereo not shown) | 8.768 | -14.61 | 3.742 | 15.65 | 9.195 |
| `CC(NC(=O)NCc1ccccc1F)(C(=O)O)c1ccco1` (stereo not shown) | 5.548 | -3.448 | 1.695 | 4.386 | 2.89 |
| `CCC(C)N(Cc1cc(C)n[nH]1)Cc1ccccc1Cl` (stereo not shown) | 6.675 | -27.76 | -2.893 | 5.333 | 7.065 |
| `Cc1ccccc1CSc1nc(N)cc(N2CCOCC(CO)C2)n1` (stereo not shown) | 15.44 | -55.71 | 11.49 | 15.15 | 4.348 |
| `O=C1COC2(CCN(c3ccccn3)CC2)CN1Cc1ccccn1` | -0.94 | -9.361 | 10.4 | 4.425 | -0.8 |
| `O=C(c1sccc1-n1cnnn1)N1CCCCC1` | 6.456 | -7.111 | 5.357 | 8.333 | 11.6 |
| `CCC1CN(Cc2nnc(C3CC3)o2)CCN1CCOC` (stereo not shown) | -3.741 | -29.12 | 0.9615 | 17.81 | 5.911 |
| `COc1ccc2nnc(CCCC(=O)NCCc3ccccc3)n2n1` | -6.269 | -3.873 | -0.3632 | 14.13 | 0 |
| `CCN(CC)C(=O)c1nnc2ccc(N3CCOCC3)cc2n1` | 20.92 | 51.72 | 6.595 | 15.53 | -1.639 |
| `COCc1cccc(C(=O)N2C[C@H]3CC[C@@H]2CN(Cc2cscn2)C3)n1` | 6.638 | -24.34 | 1.533 | -2.597 | -6.061 |
| `O=C(c1ccc(C2CCCO2)s1)N1CCN(c2ccccc2F)CC1` (stereo not shown) | -6.626 | -25.01 | 4.478 | 19.23 | -3.333 |
| `CCOC(=O)C1(Cc2ccccc2-c2ccccc2OC)CCNCC1` | -38.18 | -4.498 | -2.797 | 7.092 | 4.887 |
| `O=C(CN1CCC(c2ccccc2)CC1)NCc1cc2n(n1)CCNC2` | 1.791 | -29.59 | -8.482 | 12.5 | 3.867 |
| `CC1CCN(C(=O)CCN2Cc3ccccc3C[C@H]2C(N)=O)C1` (stereo partly shown) | 14.02 | -7.084 | 8.221 | 9.804 | 7.407 |
| `CC(C)c1noc(CN2CCN(CCO)CC2)n1` | -19.22 | -29.94 | 1.79 | 1.835 | 1.176 |
| `CCOc1cc(C)nc(N2CCN(C(=O)CC)CC2)n1` | 4.015 | -2.775 | 2.024 | 9.231 | -0.3831 |
| `CC(C)(C)C(=O)CN1CCc2ccccc2NCCC1=O` | 10.35 | -10.86 | 1.104 | 18.56 | -2.312 |

Once more, the final 5:

O=C(CN1CCC(c2ccccc2)CC1)NCc1cc2n(n1)CCNC2 read A: 1.791%; B: -29.59%; C: -8.482%; D: 12.5%; E: 3.867%.
CC1CCN(C(=O)CCN2Cc3ccccc3C[C@H]2C(N)=O)C1 (stereo partly shown) read A: 14.02%; B: -7.084%; C: 8.221%; D: 9.804%; E: 7.407%.
CC(C)c1noc(CN2CCN(CCO)CC2)n1 read A: -19.22%; B: -29.94%; C: 1.79%; D: 1.835%; E: 1.176%.
CCOc1cc(C)nc(N2CCN(C(=O)CC)CC2)n1 read A: 4.015%; B: -2.775%; C: 2.024%; D: 9.231%; E: -0.3831%.
CC(C)(C)C(=O)CN1CCc2ccccc2NCCC1=O read A: 10.35%; B: -10.86%; C: 1.104%; D: 18.56%; E: -2.312%.